In publication PMC1514790, “Tomosyn Inhibits Synaptic Vesicle Priming in Caenorhabditis elegans” (PLoS Biology, 2006):
Results are given in words; binding and its absence hold for the method and conditions named. A result given as binding can be weak or reduced; the word gives no strength. Sequences can lack the tags named with a protein.

B1: C. elegans synaptobrevin SNB-1 cytoplasmic domain (aa 1-88), His6T7-tagged (domain or fragment, UniProt O02495 1-88, looked up)
chain: MDAQGDAGAQGGSQGGPRPSNKRLQQTQAQVDEVVGIMKVNVEKVLERDQKLSQLDDRADALQEGASQFEKSAATLKRKYWWKNIKMM
notes: C. elegans synaptobrevin (SNB-1), cytoplasmic domain aa 1-88, lacking the TM domain, cloned into pRSETC; also called His6T7-tagged SNB-1; His6-SNB-1; source: recombinant, purified (Ni-NTA agarose)
B2: C. elegans SNAP-25-His6 (RIC-4) (protein, UniProt O62414 1-207)
chain: MSGDDDIPEGLEAINLKMNATTDDSLESTRRMLALCEESKEAGIKTLVMLDDQGEQLERCEGALDTINQDMKEAEDHLKGMEKCCGLCVLPWNKTDDFEKTEFAKAWKKDDDGGVISDQPRITVGDSSMGPQGGYITKITNDAREDEMDENVQQVSTMVGNLRNMAIDMSTEVSNQNRQLDRIHDKAQSNEVRVESANKRAKNLITK

Molecular target: Rat His6-tagged syntaxin (rat)
Test: SDS-resistant complex assembly seen on PAGE; purified His6-tagged syntaxin, SNAP-25 and synaptobrevin of C. elegans or rat mixed in various combinations, overnight at 4 °C, SDS sample buffer, unheated or heated to 95 °C, 4%-12% PAGE, Coomassie Blue; both purified

Row | Binder | binding
1 | B1 | binds
2 | B2 | binds weakly
